Details: human
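Note: count of indexed literature references reporting vascular liver injury in humans, e.g. peliosis hepatitis, hepatic veno-occlusive disease or Budd-Chiari syndrome.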

Row | Structure (SMILES) | Hepatotoxicity (association with vascular disease)
1 | CCC[C@@H]1C[C@@H](C(=O)N[C@@H]([C@H]2O[C@H](SC)[C@H](O)[C@@H](O)[C@H]2O)[C@H](C)Cl)N(C)C1 [CLINDAMYCIN] | 0
2 | COc1cc2c(cc1OC)C(=O)C(CC1CCN(Cc3ccccc3)CC1)C2 (configuration not stated) [DONEPEZIL] | 0
3 | O=C1OCCN1/N=C/c1ccc([N+](=O)[O-])o1 [FURAZOLIDONE] | 0
4 | COC(=O)C1=C(C)NC(C)=C(C(=O)OC)C1c1ccccc1[N+](=O)[O-] [NIFEDIPINE] | 0
5 | CCn1cc(C(=O)O)c(=O)c2cc(F)c(N3CCN(C)CC3)cc21 [PEFLOXACIN] | 0
6 | Nc1nc2ccc(OC(F)(F)F)cc2s1 [RILUZOLE] | 0
7 | CN1c2ccccc2C(NCCCCCCC(=O)O)c2ccc(Cl)cc2S1(=O)=O (configuration not stated) [TIANEPTINE] | 0
